# Test results as given in PubChem BioAssay AID540256 (National Center for Advancing Translational Sciences (NCATS), 2011).
# Screen size: about 300,000 compounds; about 3,700 (1.2%) were called active. Inconclusive results, whose numbers are uncertain, are shown with a selection of clear calls. Calls come from the whole dose curve; tested in HEK293 cells. Potencies of inconclusive entries are doubtful fits and often do not repeat.
# Assay: qHTS for Inhibitors of binding or entry into cells for Lassa Virus; note: nearly all actives have a fitted effect of over 50% in size
# Conditions: Lassa virus pseudotype entry inhibition, cell reporter; activity change, negative = inhibition: at 37.9 µM (top of the series) unless noted
# % is set by controls: 0 for no effect and ±100 for the full control effect; potency is the fitted concentration of half-maximal effect.
SMILES,Potency,"activity change, negative = inhibition"
O=c1c(Cl)c(Cl)cnn1Cc1ccccc1Cl,active: 13 µM,
CCc1ccccc1NC(=O)Cn1nnc(-c2nc(-c3ccc(C)cc3)no2)c1N,inactive,
COc1ccc(NC(=O)Nc2ccccc2)cc1S(=O)(=O)N1CCCCC1,"inconclusive: 35.5 µM [inhibitor, single point]",
CC(=O)Nc1cccc(NC(=O)CSc2cn(CC(=O)N(C(C)C)C(C)C)c3ccccc23)c1,"inconclusive: 6.31 µM [inhibitor, full curve, poor fit]",
Cn1c(CSc2nc3ccccc3s2)nc2ccccc21,"inconclusive: 6.51 µM [activator, single point]",
O=C1/C(=C\c2ccco2)SC(=S)N1C1CCS(=O)(=O)C1 (stereo not drawn),inactive,
Cc1cccc(N2CCN(C(=O)CCC(=O)N3Cc4ccccc4Oc4ncccc43)CC2)c1C,"inconclusive: 14.1 µM [inhibitor, single point]",
N#CC1=C(N)Oc2cc(O)ccc2C1c1cccs1 (stereo not drawn),inactive,
COc1ccc(CCNC(=O)c2cc(Nc3cc(C)cc(C)c3)nc3ccccc23)cc1OC,inactive,
CCCNC(=O)c1ccc(CN2CCOCC2)cc1,"inconclusive: 23.1 µM [activator, single point]",
COc1ccc(N2CCN(c3c4c(nc5nncn35)CCC4)CC2)cc1,inactive,
O=C(/C=C/Nc1ccc(F)c(F)c1)c1cccs1,"inconclusive: 35.5 µM [inhibitor, single point]",
Cc1cc(NC(=O)CSCC(=O)Nc2ccc(Cl)c(C(F)(F)F)c2)no1,inactive,
Cc1ccnc(NC(=O)CN(C)S(=O)(=O)c2cccc3nsnc23)c1,"inconclusive: 2.51 µM [inhibitor, single point]",
COc1ccc(NC(=O)C(=O)NCCC2CCCCN2S(=O)(=O)c2ccc(F)cc2)cc1 (stereo not drawn),"inconclusive: 12.6 µM [inhibitor, partial curve]",
COc1ccc(OC)c(CNC(=O)CCCc2cn(C)c3ccccc23)c1,"inconclusive: 29.1 µM [inhibitor, partial curve, poor fit]",
Cc1oc2c(C)c3oc(=O)c(CCC(=O)N4CCC(C(=O)NCCC(=O)O)(c5ccccc5)CC4)c(C)c3cc2c1C,"inconclusive: 22.4 µM [activator, single point]",
Cc1ccc(C(=O)Nc2ccc(C(=O)OCc3cc(=O)n4nc(C5CC5)sc4n3)cc2)cc1,"inconclusive: 17.8 µM [inhibitor, single point]",
N#CC1=C(N)Oc2cc(Nc3ccccc3)ccc2C1c1ccncc1 (stereo not drawn),"inconclusive: 14.1 µM [inhibitor, single point]",
CCn1ncc(C2=NOC(C(=O)Nc3cnn(C45CC6CC(CC(C6)C4)C5)c3)C2)c1C (stereo not drawn),"inconclusive: 5.8 µM [inhibitor, full curve, poor fit]",
Nc1ncnc2nc(SCCN3CCCCC3)[nH]c12,inactive,
Cc1cc(C(=O)Nc2ccccc2)oc1C,"inconclusive: 3.16 µM [activator, partial curve, poor fit]",
O=C(NCCCN1CCCC1=O)c1csc2ccccc12,inactive,

# Structures above that have an aryl methoxy group (5):
SMILES,Potency,"activity change, negative = inhibition"
COc1ccc(NC(=O)Nc2ccccc2)cc1S(=O)(=O)N1CCCCC1,"inconclusive: 35.5 µM [inhibitor, single point]",
COc1ccc(CCNC(=O)c2cc(Nc3cc(C)cc(C)c3)nc3ccccc23)cc1OC,inactive,
COc1ccc(N2CCN(c3c4c(nc5nncn35)CCC4)CC2)cc1,inactive,
COc1ccc(NC(=O)C(=O)NCCC2CCCCN2S(=O)(=O)c2ccc(F)cc2)cc1 (stereo not drawn),"inconclusive: 12.6 µM [inhibitor, partial curve]",
COc1ccc(OC)c(CNC(=O)CCCc2cn(C)c3ccccc23)c1,"inconclusive: 29.1 µM [inhibitor, partial curve, poor fit]",

# Next results:

SMILES,Potency,"activity change, negative = inhibition"
CCOC(=O)/C(C#N)=C/c1c(OCC)n(CC)c2ccccc12,"inconclusive: 4.61 µM [inhibitor, partial curve, poor fit]",
CCC(C)Nc1nc(Cl)nc(NCCOc2ccccc2)n1 (stereo not drawn),inactive,
CCN(CC)C(=O)Cn1cc(SCC(=O)Nc2ccccc2F)c2ccccc21,"inconclusive: 35.5 µM [inhibitor, single point]",
Cc1cc(OCC(=O)OCC(=O)N(C)C2CCS(=O)(=O)C2)ccc1Cl (stereo not drawn),"inconclusive: 0.282 µM [inhibitor, full curve, poor fit]",
CCC(C)C(NC=C1C(=O)OC(C)(C)OC1=O)C(=O)O (stereo not drawn),inactive,
CC(C)(C)NC(=O)c1ccc2nccnc2c1,inactive,
CCn1c(=NC(=O)CS(=O)(=O)c2ccc(F)cc2)sc2cccc(OC)c21,inactive,
CCOc1ccc(NC(=O)c2cc3c(n(-c4ccc(OC)cc4)c2=O)CC(C)(C)CC3=O)cc1,"inconclusive: 0.631 µM [inhibitor, full curve, poor fit]",
Cc1cccc(N(CC(=O)NCCSCc2ccc(Cl)cc2)S(C)(=O)=O)c1C,active: 12.6 µM,
CN=C(Nc1ccccc1)SC1CC(=O)N(c2ccc(C(=O)OC)cc2)C1=O (stereo not drawn),"inconclusive: 3.26 µM [inhibitor, partial curve, poor fit]",
CCN(C(=O)C1CCCCC1)c1nnc(-c2cccnc2)s1,inactive,
CCN(c1cccc(C)c1)S(=O)(=O)c1ccc2c(c1)NC(=O)CCS2,"inconclusive: 3.16 µM [inhibitor, partial curve, poor fit]",
COc1ccc(-n2nc(C(=O)NCC(=O)N3CCN(c4ccc(F)cc4)CC3)c3ccccc3c2=O)c(OC)c1,"inconclusive: 31.6 µM [inhibitor, single point]",
O=C(COCc1cc(-c2cccs2)on1)Nc1cccc(Cl)c1Cl,inactive,
CCCCN1C(=O)C(=O)N(CC(=O)c2ccc[nH]2)C1=O,"inconclusive: 0.251 µM [inhibitor, full curve, poor fit]",
CSCCC(NC(=O)CCC(=O)OCC(=O)[C@@]1(O)CCC2[C@@H]3CCC4=CC(=O)C=C[C@]4(C)C3[C@@H](O)C[C@@]21C)C(=O)O (stereo partly drawn),"inconclusive: 12.6 µM [activator, single point]",
CCc1ccc(-c2nc(CSCC(=O)NC3CC3)c(C)o2)cc1,"inconclusive: 0.631 µM [inhibitor, full curve, poor fit]",
Cc1c(C)n(C)c2ccc(C(=O)NCc3cccs3)cc12,"inconclusive: 29.1 µM [inhibitor, single point]",
Cc1sc2ncnc(Sc3ccccc3C(=O)Nc3ccc(C#N)cc3)c2c1C,"inconclusive: 28.2 µM [inhibitor, single point]",
Oc1ccc(Cc2ccccc2)c2cccnc12,inactive,
COc1cccc(CN(C)CC(=O)Nc2cccc(C(F)(F)F)c2)c1OC,inactive,
COc1ccc(Br)cc1/C=N/NC(=O)c1cc(OC)c(OC)c(OC)c1,"inconclusive: 0.146 µM [inhibitor, full curve, poor fit]",
CCOC(=O)c1ccc(NC(=O)C2=C(C)Nc3nc(SCc4ccc(Cl)cc4)nn3C2c2ccc(C)cc2)cc1 (stereo not drawn),"inconclusive: 6.31 µM [activator, partial curve, poor fit]",

SMILES,Potency,"activity change, negative = inhibition"
Cc1ccc(S(=O)(=O)CCC(=O)Nc2cccc(S(=O)(=O)N3CCCCCC3)c2)cc1,"inconclusive: 14.1 µM [inhibitor, single point]",
CC(=O)Nc1sc(N/N=C\c2cccc(Cl)c2)nc1-c1cccs1,inactive,
CC(C)(C)c1ccc(Oc2nc3ccccn3c(=O)c2/C=C(\C#N)c2nc3ccccc3[nH]2)cc1,"inconclusive: 35.5 µM [activator, single point]",
O=Cc1s/c(=N\S(=O)(=O)c2ccccc2)n(CCCCl)c1Cl,"inconclusive: 35.5 µM [inhibitor, single point]",
CC(=O)Nc1ccc(NC(=O)C2CCN(S(=O)(=O)c3cccc4nonc34)CC2)cc1,inactive,
CCN(CC)CCN1C(=O)C(=O)/C(=C(/O)c2ccc(Cl)cc2)C1c1ccncc1 (stereo not drawn),inactive,
CCN(Cc1ccc(OC)c(F)c1)C(=O)C1CCCO1 (stereo not drawn),"inconclusive: 0.398 µM [inhibitor, full curve, poor fit]",
Cn1ccnc1SCC(=O)Nc1cccc(S(=O)(=O)N2CCCCCC2)c1,"inconclusive: 35.5 µM [inhibitor, single point]",
CCOc1ccccc1NC(=O)C(NS(=O)(=O)c1ccc2c(c1)CCC(=O)N2)c1ccccc1 (stereo not drawn),"inconclusive: 11.2 µM [inhibitor, partial curve, poor fit]",
CCc1ccc2oc(=O)cc(CN3CCC(C)CC3)c2c1,"inconclusive: 25.9 µM [inhibitor, single point]",
Cc1nn(-c2ccccc2)c(Cl)c1/C=C1\SC(=S)N(C)C1=O,inactive,
CN(C)S(=O)(=O)c1ccc(C(=O)NCCSc2ccccc2)cc1,"inconclusive: 35.5 µM [inhibitor, single point]",
CCOC(=O)c1cc(=O)n(Cc2ccccc2C)c2ccccc12,"inconclusive: 32.6 µM [inhibitor, single point]",
CN(C)c1ccc(NC(=O)CCN2C(=O)c3cccc([N+](=O)[O-])c3C2=O)cc1,inactive,
Cn1cc(CN2CCCC(C(=O)Nc3cccc(-c4cc5ccccc5[nH]4)c3)C2)cn1 (stereo not drawn),"inconclusive: 35.5 µM [inhibitor, single point]",
O=C(c1ccc2c(c1)N(Cc1ccc(Cl)cc1)C(=O)c1ccccc1S2=O)N1CCN(c2ccccc2F)CC1 (stereo not drawn),"inconclusive: 7.94 µM [inhibitor, partial curve, poor fit]",
Cc1ccc(NC(=O)c2cccs2)cc1NC(=O)c1ccc(F)cc1,inactive,
Cc1c(C(=O)Nc2cccc(C(F)(F)F)c2)oc2ccc3c(c12)C(=O)CC(C)(C)O3,"inconclusive: 5.62 µM [inhibitor, single point]",
CS(=O)(=O)N1CCC(C(=O)N2CCN(Cc3ccccc3)CC2)CC1,,inconclusive: 5.76% [activator]
C#CC[N+](C)(C)CCCCCCCCCCCC,"inconclusive: 20 µM [inhibitor, single point]",
COc1ccc(-c2nc(C)c(CCNS(=O)(=O)c3cc(Cl)ccc3Cl)s2)cc1,"inconclusive: 12.6 µM [inhibitor, single point]",
CCOC(=O)c1sc2ncn(CC(=O)Nc3ccc(OCC)cc3)c(=O)c2c1C,"inconclusive: 5.62 µM [inhibitor, single point]",
